Screen size: about 1,300 compounds; about 65 (5%) were called active.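 The calls were made as follows: active = growth inhibition reaching a set limit at one or more tested doses; inactive = the rest.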 This is one part of the list. Results with a measured potency or affinity are listed apart.
Assay: growth inhibition of wild-type E. coli, dose response, BW25113 wild type, OD615 (AID 638)
Details: at 100 µM (top of the series) unless noted
How it was run: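 Assay system: E. coli BW25113 wild type. Doses: compound concentration series. Timing: 20 h compound exposure, 37 °C. Technique: OD615 absorbance. Medium: LB broth containing kanamycin at 50 µg/mL. Benchmarks: chloramphenicol at 30 µM final as inhibition control. Measure: IC50 from 4-parameter logistic, bounds fixed 0–100%.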

Growth inhibition, inactive:
O=C(Nc1cnn(Cc2ccc(Cl)cc2Cl)c1)c1noc2c1CCCC2 -2.89%
COc1cc(-c2nnc(SCc3ccccc3Cl)o2)cc(OC)c1OC 7.37%
COc1cccc(-c2cc(C(=O)N3C(C)CCCC3C)no2)c1 (stereo unspecified) 1.45%
C(=C\c1ccccc1)/CSc1nnc(-c2ccccn2)n1Cc1ccco1 9.17%
Cc1ccc2[nH]c(=O)c(CN(Cc3ccc4c(c3)OCO4)Cc3nnnn3C3CCCC3)cc2c1 3.62%
Cc1nc(N2CCN(Cc3ccccc3)CC2)nc2c1C(=O)CC(c1ccco1)C2 (stereo unspecified) 5.25%
CCNc1nc(NC(C)C)nc(N(C#N)CCOc2ccc(Cl)cc2Cl)n1 -15.4%
O=C(CSc1nc2ccccc2o1)Nc1ccccc1N1CCCCCC1 1.71%
CCN(CCNC(=O)C1CCN(Cc2nc(-c3cccc(Cl)c3)oc2C)CC1)c1ccccc1 9.5%
Cc1ccc2c3c1C1(C(=O)N3C(C)(C)CC2C)C(C#N)=C(N)Oc2cc(O)ccc21 (stereo unspecified) 15.4%
Cc1cccc(-n2ncc3c(N4CCC(C)CC4)ncnc32)c1 -9.29%
COC(=O)c1sccc1NC(=O)c1cc2c(s1)CCCC2 2.79%
COc1nc(N(c2ccccc2)c2ccccc2)nc(-n2ccnc2)n1 12.7%
O=C(O)CCCC(=O)N1CCc2cc(S(=O)(=O)N3CCc4ccccc43)ccc21 -7.98%
COc1ccc(CN(Cc2cc3cc4c(cc3[nH]c2=O)OCO4)C(=O)NC2CCCCC2)cc1 -8.18%
CN(C)c1ccc(-c2nn3c(-c4ccncc4)nnc3s2)cc1 -6.08%
Cc1cc(C)c(C#N)c(N2CCN(CCOc3ccc(Cl)cc3)CC2)n1 7.86%
CN(c1ccccc1C(=O)Nc1ccc(S(=O)(=O)N2CCCCC2)cc1)S(C)(=O)=O -1.44%
Cc1oc(C(C)(C)C)cc1C(=O)Nc1ccc2c(c1)OCCO2 -3%
Cc1ccc(SCC(=O)N(Cc2nc(-c3ccccc3)no2)C(C)C)cc1 -2.8%
O=S(=O)(Nc1nc2ccccc2nc1NCc1ccco1)c1ccc(Cl)cc1 15.4%
CCOC(=O)c1c(C)[nH]c(C)c1C(=O)Cn1nnc(-c2ccccc2C)n1 0.22%
CCOC(=O)CSC1=C(C#N)C(c2ccco2)C(C(=O)Nc2cccc(C(F)(F)F)c2)=C(C)N1 (stereo unspecified) -10.2%
C=CCn1c(NC(C)c2cc(Cl)ccc2O)nc2ccccc21 (stereo unspecified) 13.7%
O=C(N1CCN(c2ccccc2F)CC1)C12CC3CC(CC(C3)C1)C2 1.32%
NC1=NC(c2cn(-c3ccccc3)nc2-c2cccs2)n2c(nc3ccccc32)N1 (stereo unspecified) 14.5%
COc1ccccc1Cc1nc(-c2ccc(Br)o2)no1 10.7%
Cc1cccc(S(=O)(=O)Nc2nc3ccccc3nc2NCc2ccco2)c1 4.61%
O=C(c1cc2ccccc2o1)N1CCN(c2ccccc2Cl)CC1 -4.38%
Cc1cccc(Cn2c(=O)n(Cc3ccco3)c(=O)c3ccccc32)c1 -5.41%
Brc1cccc(C2CC(c3ccccc3)n3nnnc3N2)c1 (stereo unspecified) -4.92%
Cc1nc2nc(COc3ccccc3)[nH]n2c(=O)c1Cc1ccccc1 11.3%
Cc1noc(C)c1COC(=O)c1cc(C)n(-c2ccccc2)c1C 3.3%
Fc1ccc(Br)cc1C1C=C(c2ccc(Br)s2)Nc2ncnn21 (stereo unspecified) -9.67%
COc1ccc(S(=O)(=O)Nc2ccc(S(=O)(=O)N3CCCCC3)cc2)cc1 -5.18%
Cc1onc(-c2ccccc2)c1C(=O)Nc1nnc(COc2ccc(Cl)cc2)s1 -9.06%
Cc1cc(C)cc(Nc2cc(=O)n(C3CCCCC3)c(=O)[nH]2)c1 2.85%
CCOC(=O)c1ccccc1NC(=O)c1c(F)c(F)c(F)c(F)c1F -1.02%
CS(=O)(=O)N1CCc2cc(-c3csc(NC(=O)Cc4cccs4)n3)ccc21 -0.66%
O=C(CCn1c(=O)oc2ccccc21)N1CCN(C(c2ccccc2)c2ccccc2)CC1 0.1%
COc1ccc(OCC(O)Cn2c(=N)n(Cc3ccccc3)c3ccccc32)cc1 (stereo unspecified) 8.38%
Cc1ccc(C)c(S(=O)(=O)C(C#N)c2nc3ccccc3nc2N2CCOCC2)c1 (stereo unspecified) 4.2%
c1ccc(CN2CCN(c3nc(-c4ccccc4)nc(-n4ccnc4)n3)CC2)cc1 -6.5%
Cc1cc(C(=O)CSc2nc3ccccc3o2)c(C)n1C1CC1 4.13%
CCOc1ccc(C(=O)C2CCN(CC(=O)Nc3ccccc3N3CCOCC3)CC2)cc1 8.78%
COc1ccc(-n2cnc3cc(NCc4cccs4)ccc32)cc1 7.38%
Clc1ccc(OCCn2ccnc2)c2ccccc12 12.7% [at 50 µM]
O=C(Nc1nnc(-c2ccccc2Cl)o1)c1ccc(S(=O)(=O)N2CCCCCC2)cc1 -6.86%
CN(C)S(=O)(=O)N(Cc1ccc(Br)cc1)c1ccccc1 4.47%
c1ccc(Cn2nnnc2C(c2cccs2)N2CCCCCC2)cc1 (stereo unspecified) 12.9%
Cc1n[nH]c(C)c1S(=O)(=O)N(CC(=O)Nc1ccc2c(c1)OCCO2)c1ccc(C(C)C)cc1 -7.64%
c1ccc(CC2CCN(Cc3nc(-c4ccccc4)no3)CC2)cc1 1.02%
Cc1ccc(S(=O)(=O)N(Cc2ccccc2)Cc2ccco2)cc1 -4.74%
O=C(COc1ccccc1Br)c1ccc(O)cc1O 13.1%
N#Cc1cn(Cc2cccc(Cl)c2)c2ccccc12 12.4%
CS(=O)(=O)N(Cc1nc2sc3c(c2c(=O)[nH]1)CCCC3)C1CCCCC1 17.3%

Some of these compounds in order of SMILES length, largest number first.
Growth inhibition, inactive:
CN(c1ccccc1C(=O)Nc1ccc(S(=O)(=O)N2CCCCC2)cc1)S(C)(=O)=O -1.44%
CCOc1ccc(C(=O)C2CCN(CC(=O)Nc3ccccc3N3CCOCC3)CC2)cc1 8.78%
CS(=O)(=O)N(Cc1nc2sc3c(c2c(=O)[nH]1)CCCC3)C1CCCCC1 17.3%

Reference: PubChem BioAssay AID638 (SRMLSC, 2007)
